In paper PMC11867009 (2025):

Assay: general procedure: Fmoc solid-phase peptide synthesis; rink amide resin LS (0.5 mmol/g, 100–200 mesh); DIC / oxyma pure
Settings: whole synthesis, analytical reverse-phase HPLC, XBridge C18, UV detection, hydrocarbon staple, sequence written open

In the case of “Fmoc-Ahx-PESKAIKA(pentenyl)LLKA(pentenyl)VSKERSKRSP-NH2”, the “final HPLC purity” value is reported as ≥ 98%.
